According to PMC7804152, “Structural basis for the multi-activity factor Rad5 in replication stress tolerance”:
For part of these data: A negative result means that nothing was seen under these conditions. Protein sequences can lack the tags named with them. For part of these data: Weaker means in comparison with the reference protein, sequence or condition of that experiment. For part of these data: The exact form of at least one protein or probe is not confirmed. For part of these data: At least one verdict was read from the data and is not stated in words by the source.

Experiments:
[1] = biological target: T1, KlHIRAN (Kluyveromyces lactis) (UniProt Q6CJM4); experiment: fluorescence polarization; details: 50 mM NaCl; FP: 20 mM Tris pH 7.5, 50 mM (dsDNA, KlHIRAN) or 70 mM (ssDNA) NaCl, 2 mM MgCl2, 1 nM DNA, room temp; recombinant protein; residues 174-341; protein details: intein-CBD cleaved off; label: 5'-FAM on D3a
T1 sequence (looked up): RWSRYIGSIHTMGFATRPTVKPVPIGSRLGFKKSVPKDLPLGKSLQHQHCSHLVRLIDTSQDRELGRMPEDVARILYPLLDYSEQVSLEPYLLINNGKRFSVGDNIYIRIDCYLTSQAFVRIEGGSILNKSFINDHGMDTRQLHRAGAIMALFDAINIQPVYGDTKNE

HLTF (Homo sapiens) = biological target: T2, HLTF (Homo sapiens) (UniProt Q14527); experiment: pull-down; details: 100 mM salt, free 3'-OH required; pull-down: 20 mM Tris pH 7.5, 50 mM NaCl, 4 C; recombinant protein; protein details: His (pET28a); label: 3'-biotin; single-stranded DNA
T2 sequence (looked up, limits assumed): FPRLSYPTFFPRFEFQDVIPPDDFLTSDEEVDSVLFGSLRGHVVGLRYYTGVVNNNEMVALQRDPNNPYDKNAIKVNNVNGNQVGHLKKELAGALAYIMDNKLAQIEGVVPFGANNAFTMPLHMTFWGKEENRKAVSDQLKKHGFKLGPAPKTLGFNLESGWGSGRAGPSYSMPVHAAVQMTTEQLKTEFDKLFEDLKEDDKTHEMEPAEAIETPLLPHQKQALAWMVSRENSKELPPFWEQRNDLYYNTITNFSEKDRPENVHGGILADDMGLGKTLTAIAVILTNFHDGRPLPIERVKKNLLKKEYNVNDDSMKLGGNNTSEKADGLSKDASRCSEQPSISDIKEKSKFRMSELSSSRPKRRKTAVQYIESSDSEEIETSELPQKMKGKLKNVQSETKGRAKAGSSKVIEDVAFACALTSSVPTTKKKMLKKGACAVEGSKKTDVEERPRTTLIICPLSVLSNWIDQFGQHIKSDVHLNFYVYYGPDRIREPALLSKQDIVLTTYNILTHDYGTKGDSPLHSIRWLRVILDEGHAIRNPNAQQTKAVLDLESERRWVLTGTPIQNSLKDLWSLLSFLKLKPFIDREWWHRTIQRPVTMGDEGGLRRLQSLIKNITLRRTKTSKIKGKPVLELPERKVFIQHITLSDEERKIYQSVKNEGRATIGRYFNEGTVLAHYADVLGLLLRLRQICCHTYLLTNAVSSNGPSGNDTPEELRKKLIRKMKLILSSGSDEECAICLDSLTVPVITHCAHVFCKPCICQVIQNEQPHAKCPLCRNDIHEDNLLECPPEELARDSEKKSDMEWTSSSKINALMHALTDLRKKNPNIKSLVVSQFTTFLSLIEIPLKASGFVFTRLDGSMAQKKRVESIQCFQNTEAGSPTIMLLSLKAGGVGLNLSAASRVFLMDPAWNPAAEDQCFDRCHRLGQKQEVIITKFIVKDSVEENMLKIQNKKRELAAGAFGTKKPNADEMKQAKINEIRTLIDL

[2] = biological target: T3, KlRad5 (Kluyveromyces lactis) (UniProt Q6CJM4); experiment: fluorescence polarization; details: 70 mM NaCl; FP: 20 mM Tris pH 7.5, 50 mM (dsDNA, KlHIRAN) or 70 mM (ssDNA) NaCl, 2 mM MgCl2, 1 nM DNA, room temp; recombinant protein; residues 163-1114; label: 5'-FAM; single-stranded DNA
T3 sequence (looked up): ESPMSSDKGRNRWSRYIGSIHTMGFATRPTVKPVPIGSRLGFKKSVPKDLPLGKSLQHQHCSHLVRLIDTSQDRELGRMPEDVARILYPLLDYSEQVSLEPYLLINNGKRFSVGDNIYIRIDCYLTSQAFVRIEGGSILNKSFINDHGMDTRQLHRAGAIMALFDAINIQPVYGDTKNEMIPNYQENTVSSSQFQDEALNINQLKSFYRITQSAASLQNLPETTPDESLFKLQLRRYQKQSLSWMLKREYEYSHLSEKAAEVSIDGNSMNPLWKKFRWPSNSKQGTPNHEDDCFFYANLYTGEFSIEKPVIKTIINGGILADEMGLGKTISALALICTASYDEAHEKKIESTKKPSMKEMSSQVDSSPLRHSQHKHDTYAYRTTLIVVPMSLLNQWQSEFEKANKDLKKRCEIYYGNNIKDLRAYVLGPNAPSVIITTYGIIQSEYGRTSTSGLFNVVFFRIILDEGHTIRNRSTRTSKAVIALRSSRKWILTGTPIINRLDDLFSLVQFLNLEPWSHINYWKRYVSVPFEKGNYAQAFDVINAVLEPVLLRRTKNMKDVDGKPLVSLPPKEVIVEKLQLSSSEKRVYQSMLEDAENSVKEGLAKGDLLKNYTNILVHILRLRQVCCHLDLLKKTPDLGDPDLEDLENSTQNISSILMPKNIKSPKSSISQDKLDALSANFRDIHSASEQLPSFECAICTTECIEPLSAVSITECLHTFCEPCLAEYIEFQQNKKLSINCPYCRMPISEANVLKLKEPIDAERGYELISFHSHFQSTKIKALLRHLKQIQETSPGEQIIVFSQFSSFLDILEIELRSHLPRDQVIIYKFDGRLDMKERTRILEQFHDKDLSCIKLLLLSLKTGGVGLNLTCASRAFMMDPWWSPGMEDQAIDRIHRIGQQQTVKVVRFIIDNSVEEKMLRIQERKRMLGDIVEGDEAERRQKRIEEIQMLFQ

“CAACGTCATAGACGATTACATTGCTACATGGAGCTGTCTAGAGGATCCGA (double strand) [D3a/D3b blunt dsDNA]”: binds more weakly [1].

“TTTTTTTTTTTTTTTTTTTTTTTTT [dT25, 3'-biotin]”: no binding (HLTF (Homo sapiens)).

“TTTTTTTTTTTTTTTTTTTTTTTTT [dT25, 5'-FAM]”: binds [2].
